These are yes or no findings as the source states them, for the method shown. In cells and extracts the contact can be indirect. Some results given as binding are weak or reduced against the parent protein; the word gives no strength. Blank lines part the entries; values can stand above or below the binder they belong to.
Columns and labels:
[1] = molecular target: T1, Che-1/AATF (human (endogenous in Kms27 and RPMI8226)) (UniProt Q9NY61); experiment: co-IP
T1 sequence: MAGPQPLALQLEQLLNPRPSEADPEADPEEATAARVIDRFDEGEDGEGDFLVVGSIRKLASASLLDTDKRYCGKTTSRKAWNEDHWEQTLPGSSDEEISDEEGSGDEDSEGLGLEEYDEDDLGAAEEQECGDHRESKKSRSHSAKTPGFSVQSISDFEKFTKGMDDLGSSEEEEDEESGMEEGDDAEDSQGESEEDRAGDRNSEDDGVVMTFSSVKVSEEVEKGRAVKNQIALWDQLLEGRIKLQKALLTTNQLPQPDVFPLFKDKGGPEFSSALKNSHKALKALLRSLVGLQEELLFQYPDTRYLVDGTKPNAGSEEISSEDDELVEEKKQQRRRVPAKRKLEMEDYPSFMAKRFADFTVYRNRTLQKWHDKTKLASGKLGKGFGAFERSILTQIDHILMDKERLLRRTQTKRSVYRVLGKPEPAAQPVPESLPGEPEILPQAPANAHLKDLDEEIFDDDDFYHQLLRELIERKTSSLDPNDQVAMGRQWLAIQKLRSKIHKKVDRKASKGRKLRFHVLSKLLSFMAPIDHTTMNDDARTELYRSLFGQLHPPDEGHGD

[2] = molecular target: T1, Che-1/AATF (human (endogenous in Kms27 and RPMI8226)); experiment: proximity ligation
[3] = molecular target: T2, SFPQ (human (endogenous in Kms27 and RPMI8226)) (UniProt P23246); experiment: co-IP
T2 sequence: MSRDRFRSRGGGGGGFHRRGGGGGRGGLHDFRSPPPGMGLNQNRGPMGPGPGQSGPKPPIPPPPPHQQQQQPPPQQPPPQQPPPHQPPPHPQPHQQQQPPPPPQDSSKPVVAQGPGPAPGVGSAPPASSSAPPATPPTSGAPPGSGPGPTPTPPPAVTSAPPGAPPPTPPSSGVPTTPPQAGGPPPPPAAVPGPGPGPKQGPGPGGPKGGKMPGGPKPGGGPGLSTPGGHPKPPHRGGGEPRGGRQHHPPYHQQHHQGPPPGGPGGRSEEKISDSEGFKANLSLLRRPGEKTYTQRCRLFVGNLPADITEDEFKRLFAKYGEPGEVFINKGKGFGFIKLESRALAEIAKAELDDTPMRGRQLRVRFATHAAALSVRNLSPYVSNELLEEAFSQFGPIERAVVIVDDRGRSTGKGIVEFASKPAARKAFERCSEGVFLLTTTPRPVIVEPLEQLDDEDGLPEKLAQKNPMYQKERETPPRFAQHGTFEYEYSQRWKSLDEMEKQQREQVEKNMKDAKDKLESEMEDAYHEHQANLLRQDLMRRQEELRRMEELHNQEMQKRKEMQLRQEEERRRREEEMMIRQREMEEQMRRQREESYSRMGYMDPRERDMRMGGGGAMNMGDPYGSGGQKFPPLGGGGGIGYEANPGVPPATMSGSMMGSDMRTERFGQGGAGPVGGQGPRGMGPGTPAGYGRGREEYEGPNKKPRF

co-IP = substrate: T3, NONO (human (endogenous in Kms27 and RPMI8226)) (UniProt Q15233); experiment: co-IP
T3 sequence: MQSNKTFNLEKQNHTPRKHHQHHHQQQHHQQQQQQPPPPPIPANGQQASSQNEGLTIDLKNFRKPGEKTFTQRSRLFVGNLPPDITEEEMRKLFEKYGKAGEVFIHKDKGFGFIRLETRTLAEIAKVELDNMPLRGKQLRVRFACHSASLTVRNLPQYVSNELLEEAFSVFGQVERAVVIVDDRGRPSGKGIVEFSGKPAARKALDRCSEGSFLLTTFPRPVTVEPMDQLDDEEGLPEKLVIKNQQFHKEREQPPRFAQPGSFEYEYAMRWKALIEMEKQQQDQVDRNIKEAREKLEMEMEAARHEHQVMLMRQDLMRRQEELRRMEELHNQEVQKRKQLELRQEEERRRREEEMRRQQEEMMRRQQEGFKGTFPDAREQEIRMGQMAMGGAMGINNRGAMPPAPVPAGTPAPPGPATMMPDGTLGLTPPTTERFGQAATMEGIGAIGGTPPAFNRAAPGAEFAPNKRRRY

binding [1]: binds
binding [2]: binds
B1: NONO (protein, UniProt Q15233 1-471)
chain: T3 sequence

binding [3]: binds
binding (co-IP): binds
B2: Che-1/AATF (protein, UniProt Q9NY61 1-560)
chain: T1 sequence
